According to PubChem BioAssay AID2685 (National Center for Advancing Translational Sciences (NCATS), 2010):
Some of the results follow. The main result of the screen is listed elsewhere. These columns were measured beside it and carry no call. The list favours compounds with an active or inconclusive main result. Words in brackets tell the shape of the fitted curve; partial curves, single points and poor fits give uncertain potencies.

Experiment: qHTS Assay for Lipid Storage Modulators in Drosophila S3 Cells;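 for cell number change: cells counted by Cell Tracker Red CMTPX staining in the red channel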
Conditions: BODIPY lipid droplet fluorescence, 18-24 h; for cell number change: measured here: cell count max response, cells fed with added oleic acid
In short: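 Drosophila S3 cells loaded with oleic acid (400 uM, as added) and compounds at several concentrations; lipid droplets imaged by 488-nm laser-scanning cytometry, 500–530 nm intensity and object ratio to cell channel. Percent activity normalized to 20 uM Triacsin C.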

[1] = measured here: lipid fluorescence (Fed channel) AC50, cells fed with added oleic acid
[2] = measured here: cell number channel AC50, cells fed with added oleic acid

Compound	cell number change	AC50 [1]	AC50 [2]
CCN(CC(=O)Nc1ccc(OC)cc1)C(=O)CN1C(=O)NC(C)(c2ccc3ccccc3c2)C1=O (stereo not drawn)	27.6%	0.291 µM [rising, full curve]	–
CCCCC(=O)Nc1ccc(C(=O)Nc2ccc(S(=O)(=O)Nc3ccc(C)cc3)cc2)cc1	1.11%	29.1 µM [falling, single point]	6.51 µM [falling, single point]
CN1C(=O)C(Cl)(Cl)C(=O)c2ccccc21	-91%	20.6 µM [falling, partial curve]	29.1 µM [falling, single point]
Cn1cc(-c2ccccc2)cc(C#N)c1=O	-30%	–	–
CC(=O)c1ccc(N2CCN(S(=O)(=O)c3ccc4c(c3)CC(C)N4C(=O)C3CC3)CC2)cc1 (stereo not drawn)	-5.38%	29.1 µM [falling, single point]	–
CCCSc1nc(C)c(C(C)=O)cc1C#N	17.9%	6.51 µM [falling, single point]	0.517 µM [falling, full curve]
O=C(NCc1ccco1)c1nc2c(nnn2Cc2ccccc2Cl)c(=O)[nH]1	-13.4%	4.11 µM [falling, partial curve]	–
Cc1c(NC(=S)/C=C2\N(C)c3ccccc3C2(C)C)c(=O)n(-c2ccccc2)n1C	-16.1%	29.1 µM [falling, single point]	–
COc1cc(C(=S)N2CCCC2)cc(Cl)c1O	-96.1%	23.1 µM [falling, single point]	18.4 µM [falling, partial curve]
CCOC(=O)NC(=O)CSc1nc2ccc(C)cc2[nH]1	-15.8%	16.4 µM [rising, single point]	–
Clc1ccc(CCNc2nc3ccccc3s2)cc1	-32%	29.1 µM [falling, single point]	29.1 µM [falling, single point]
CN(C)c1ccc(Nc2c3c4c(cccc4n(C)c2=O)C(=O)c2ccccc2-3)cc1	-62.2%	1.84 µM [falling, full curve]	2.06 µM [falling, full curve]
Cn1c(COc2ccc3ccccc3c2)nnc1SCC(=O)O	4.18%	–	–
CC1CCN(S(=O)(=O)c2ccc(C(=O)NCc3ccc4c(c3)OCO4)cc2)CC1	48.7%	29.1 µM [rising, single point]	29.1 µM [rising, single point]
COc1cc(NC(=O)COc2ccc(Cl)cc2)ccc1-c1cc2ccccc2oc1=O	-0.262%	1.46 µM [rising, full curve]	–
O=C(c1ccccc1)c1ccccc1C(=O)N1CCN(C(=O)c2ccccc2)CC1	–	0.00517 µM [rising, partial curve, poor fit]	–
O=C(/C=C/c1ccccc1F)c1cccc([N+](=O)[O-])c1	-37%	9.2 µM [falling, partial curve]	0.326 µM [falling, partial curve, poor fit]
CCCc1cc(C(=O)NNC(=S)NCc2ccccc2)cs1	-117%	16.4 µM [falling, single point]	20.6 µM [falling, partial curve]
CS(=O)(=O)Nc1ccc(OCc2ccccc2)cc1	–	29.1 µM [rising, single point]	3.26 µM [falling, single point]

Three entries picked at random from the list so far:
Compound	cell number change	AC50 [1]	AC50 [2]
O=C(c1ccccc1)c1ccccc1C(=O)N1CCN(C(=O)c2ccccc2)CC1	–	0.00517 µM [rising, partial curve, poor fit]	–
Cn1c(COc2ccc3ccccc3c2)nnc1SCC(=O)O	4.18%	–	–
CCN(CC(=O)Nc1ccc(OC)cc1)C(=O)CN1C(=O)NC(C)(c2ccc3ccccc3c2)C1=O (stereo not drawn)	27.6%	0.291 µM [rising, full curve]	–

Remaining list, next part.

Compound	cell number change	AC50 [1]	AC50 [2]
O=C(CSc1ccccn1)Nc1nc2ccccc2s1	17%	2.91 µM [rising, partial curve]	–
O=C(NC1CC2CCCC(C1)N2C(=O)Nc1ccccc1)c1ccccc1 (stereo not drawn)	16.7%	11.6 µM [rising, single point]	–
O=C(COC(=O)c1ccc([N+](=O)[O-])o1)c1ccccc1	-8.04%	32.6 µM [rising, single point]	–
CCc1ccc(O)c(-c2cc(C(=O)Nc3cccnc3)[nH]n2)c1	-1.81%	–	–
O=C(Cc1ccc(Br)cc1)N1CCN(c2ccccc2)CC1	19.8%	–	–
Oc1ccc(N=Nc2c(O)ccc3ccccc23)cc1	-155%	23.1 µM [falling, single point]	20.6 µM [falling, single point]
c1ccc(-c2csc(N3CCc4ccccc4C3)n2)cc1	22%	–	–
NS(=O)(=O)c1cccc(NS(=O)(=O)c2cccc(C(F)(F)F)c2)c1	5.03%	1.84 µM [falling, full curve]	1.3 µM [falling, full curve, poor fit]
Cc1ccc(N(C(=O)C(F)(F)F)C(C(=O)NC2CCCCC2)c2cccs2)cc1C (stereo not drawn)	17.5%	3.26 µM [rising, single point]	–
O=C(Nc1ccc(Oc2cccc(C(F)(F)F)c2)nc1)c1ccccc1	-23.3%	–	–
COC(=O)C(CC(C(=O)OC)C(=O)OC)C(=O)OC	-10%	0.184 µM [rising, full curve, poor fit]	–
CC(C)(C)C(=O)Nc1nc(=S)ss1	-17.9%	32.6 µM [falling, partial curve, poor fit]	–
CN(CCc1ccccn1)c1ccc([N+](=O)[O-])cn1	32.4%	1.16 µM [rising, partial curve]	0.58 µM [rising, full curve, poor fit]
CN1CCn2c1nc(N1CCCCC1)nc2=O	-1.16%	0.461 µM [falling, full curve]	–
CC(C1CC1)N(Cc1ccccc1)C(=O)NC(=O)c1ccc(F)cc1 (stereo not drawn)	-34.7%	–	0.82 µM [falling, full curve, poor fit]
CCOC(=O)C1CCN(C(=O)COc2ccc(N(C)S(=O)(=O)c3cccs3)cc2)CC1	-11.7%	–	–
CCC(C)(C)n1nnnc1C(c1cc2cc(C)ccc2[nH]c1=O)N1CCCc2ccccc21 (stereo not drawn)	90.4%	–	–
C#CCSc1nnc(-c2ccc(O)cc2)o1	42.6%	–	–
CC(C)(C)n1ncc2c(=O)n(CC(=O)Nc3ccc4c(c3)OCO4)cnc21	-10.6%	0.731 µM [rising, single point]	–
